Results are given in words; binding and its absence hold for the method and conditions named. In cells and extracts the contact can be indirect. Binding calls can cover weak binding; strength is not graded here.

By UniProt entry, the sequences of proteins in these tests, tags left out. Where a name states a change or a piece, a line headed by the entry shows the natural chain unless it says otherwise.
UniProt P34298: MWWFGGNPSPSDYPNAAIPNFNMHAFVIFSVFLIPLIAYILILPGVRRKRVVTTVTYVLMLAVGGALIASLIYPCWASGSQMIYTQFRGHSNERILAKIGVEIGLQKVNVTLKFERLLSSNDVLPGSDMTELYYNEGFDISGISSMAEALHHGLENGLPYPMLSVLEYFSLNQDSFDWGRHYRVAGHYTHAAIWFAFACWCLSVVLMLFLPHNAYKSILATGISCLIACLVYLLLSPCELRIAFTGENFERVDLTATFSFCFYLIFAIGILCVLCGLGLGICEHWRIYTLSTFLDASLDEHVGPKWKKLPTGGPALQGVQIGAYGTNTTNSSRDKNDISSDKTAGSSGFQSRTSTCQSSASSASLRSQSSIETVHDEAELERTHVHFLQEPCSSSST
UniProt Q8WQ99: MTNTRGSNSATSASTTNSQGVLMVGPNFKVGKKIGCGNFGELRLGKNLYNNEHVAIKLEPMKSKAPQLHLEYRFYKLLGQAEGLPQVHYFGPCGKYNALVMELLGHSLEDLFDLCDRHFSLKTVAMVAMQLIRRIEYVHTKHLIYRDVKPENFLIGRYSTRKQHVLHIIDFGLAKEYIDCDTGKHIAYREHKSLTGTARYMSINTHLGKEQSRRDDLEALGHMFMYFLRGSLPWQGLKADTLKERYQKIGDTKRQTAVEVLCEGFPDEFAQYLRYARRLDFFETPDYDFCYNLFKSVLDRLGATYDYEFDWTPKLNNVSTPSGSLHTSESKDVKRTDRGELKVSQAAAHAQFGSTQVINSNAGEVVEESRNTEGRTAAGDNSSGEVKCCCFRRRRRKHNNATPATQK

From paper PMC10166522 come the findings set out here.

This assay deals with His::TF::DOXA-1 fusion protein (C. elegans) (UniProt P34298). Nature of the assay: pull-down; His::TF fusion protein from BL21 held on His-tag resin, incubated at 4°C overnight with the lysate supernatant of transfected HEK293T cells, 3 washes in TBST; Western blot; only the target purified. Background: In western blotting, separated proteins are transferred to a membrane and probed.

With “FLAG::CSNK-1 fusion protein (from UniProt Q8WQ99 1-407) (enzyme)”, the binding result is “binds”.
